Measurements reported in PubChem BioAssay AID1224830 (NIAID, 2016)
Assay: 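Host factors that control LPS-induced TNF expression in human macrophages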 (primary screen). System: human THP-1 monocytic leukaemia cells, TNF dual-luciferase reporter clone, PMA-differentiated to macrophage-like cells. Knock-down reagent: siRNA pool against human genes, 50 nM. Time to read-out: LPS for 4 h, given about 3 days after siRNA transfection. Conditions: bacterial LPS (TLR4 ligand), 10 ng/ml. Read-out: 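Ratio of firefly to renilla light, scaled to the plate median and expressed as a robust z-score per replicate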. Reading the numbers: TNF reporter robust z-score: higher = stronger TNF reporter response to LPS. Call rule: 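a well is active when its z-score exceeds 2.8 or falls below -1.5; control wells carry no call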.
Here is a random part of about 18,000 reagents tested. In the full data, about 2,900 (16%) were called active. 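Calls are made per well; low scores hint the gene aids the LPS response, high scores that it dampens it.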 Repeated entries: four replicate wells of each siRNA pool.

| target gene | TNF reporter robust z-score | Call |
| --- | --- | --- |
| SPP2 | -0.56 | inactive |
| SPP2 | -1.26 | inactive |
| SPP2 | -0.74 | inactive |
| SPP2 | -0.11 | inactive |
| NTF4 | 3.55 | active |
| NTF4 | 1.09 | inactive |
| NTF4 | 3.42 | active |
| NTF4 | 4.43 | active |
| CELF4 | -0.22 | inactive |
| CELF4 | 0.59 | inactive |
| CELF4 | 0.69 | inactive |
| CELF4 | 1.06 | inactive |
| H1-10 | 2.28 | inactive |
| H1-10 | 2.44 | inactive |
| H1-10 | -1.63 | active |
| H1-10 | 1.38 | inactive |
| MAPK15 | 1.05 | inactive |
| MAPK15 | 0.37 | inactive |
| MAPK15 | 0.22 | inactive |
| MAPK15 | 0 | inactive |
| TIMM22 | 0.68 | inactive |
| TIMM22 | 1.77 | inactive |
| TIMM22 | 1.28 | inactive |
| TIMM22 | 0.88 | inactive |
| MYL3 | -0.82 | inactive |
| MYL3 | -1.02 | inactive |
| MYL3 | 0.04 | inactive |
| MYL3 | 1.93 | inactive |
| NMT2 | -0.56 | inactive |
| NMT2 | -0.83 | inactive |
| NMT2 | 0.42 | inactive |
| NMT2 | 0.18 | inactive |
| ZSCAN20 | -0.84 | inactive |
| ZSCAN20 | -1.65 | active |
| ZSCAN20 | -0.77 | inactive |
| ZSCAN20 | -0.56 | inactive |
| HLA-E | – | inactive |
| HLA-E | 1.69 | inactive |
| HLA-E | 1.54 | inactive |
| HLA-E | 1.14 | inactive |
| HLA-E | 1.6 | inactive |
| OR52K1 | 1.01 | inactive |
| OR52K1 | 1.64 | inactive |
| OR52K1 | 0.96 | inactive |
| OR52K1 | 1.4 | inactive |
